Results deposited as PubChem BioAssay AID743121 (NCATS, 2013)
Shown is a random part of about 26,000 reagents. 167 of them (0.63%) were called active. 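Calls are per gene from RSA p-values that are not deposited; an individual active-marked siRNA can sensitise only weakly.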 Entries without a mark were called inactive. Not all columns of the deposit are shown.

- Aim: 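Knock-downs that sensitise breast cancer cells to camptothecin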 (primary screen)
- Cells: MDA-MB-231 cells, a human breast cancer line
- Reagents: single siRNA against human genes, 20 nM siRNA (0.8 pmol per well)
- Duration: 120 h (drug added 48 h after transfection, read 72 h later)
- Conditions: camptothecin 20 nM (about EC30) for 72 h; vehicle 0.1% DMSO in parallel plates
- Measurement: 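Cell viability by ATP luminescence (CellTiter-Glo) as % of non-targeting siRNA wells, and the log2 ratio of viability without drug over viability with camptothecin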
- Direction: log2 vehicle/camptothecin viability: higher = stronger sensitisation to camptothecin; viability with camptothecin: higher = more viable cells
- Units: viability with camptothecin in % of control
- Call rule: 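Each gene scored by redundant siRNA activity (RSA) over its individual siRNA ratios; a gene is called active at p < 0.001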

MTA1 (GeneID 9112) [SID164401785]
- log2 vehicle/camptothecin viability: -0.571
- viability with camptothecin: 86.8

MTA1 (GeneID 9112) [SID164401786]
- log2 vehicle/camptothecin viability: 0.135
- viability with camptothecin: 35.8

MTA1 (GeneID 9112) [SID164401787]
- log2 vehicle/camptothecin viability: -0.492
- viability with camptothecin: 117

PTPN22 (GeneID 26191) [SID164459238]
- log2 vehicle/camptothecin viability: 0.24
- viability with camptothecin: 36.6

PTPN22 (GeneID 26191) [SID164459239]
- log2 vehicle/camptothecin viability: -0.135
- viability with camptothecin: 105

PTPN22 (GeneID 26191) [SID164459240]
- log2 vehicle/camptothecin viability: -0.377
- viability with camptothecin: 50.5

PTPN22 (GeneID 26191) [SID164459244]
- log2 vehicle/camptothecin viability: -0.282
- viability with camptothecin: 64.8

PMM2 (GeneID 5373) [SID164381376]
- log2 vehicle/camptothecin viability: -0.132
- viability with camptothecin: 93.3

PMM2 (GeneID 5373) [SID164381377]
- log2 vehicle/camptothecin viability: 0.0928
- viability with camptothecin: 39.1

PMM2 (GeneID 5373) [SID164381379]
- log2 vehicle/camptothecin viability: -0.21
- viability with camptothecin: 112

PGK2 (GeneID 5232) [SID164380468]
- log2 vehicle/camptothecin viability: -0.145
- viability with camptothecin: 111

PGK2 (GeneID 5232) [SID164380470]
- log2 vehicle/camptothecin viability: -0.452
- viability with camptothecin: 76.6

PGK2 (GeneID 5232) [SID164380471]
- log2 vehicle/camptothecin viability: -0.175
- viability with camptothecin: 92.7

PGK2 (GeneID 5232) [SID164380473]
- log2 vehicle/camptothecin viability: -0.00318
- viability with camptothecin: 74.2

FBXO11 (GeneID 80204) [SID164535521]
- log2 vehicle/camptothecin viability: 0.148
- viability with camptothecin: 54.2

FBXO11 (GeneID 80204) [SID164535522]
- log2 vehicle/camptothecin viability: -0.112
- viability with camptothecin: 95.4

FBXO11 (GeneID 80204) [SID164535529]
- log2 vehicle/camptothecin viability: -0.0524
- viability with camptothecin: 38.8

FBXO11 (GeneID 80204) [SID164535530]
- log2 vehicle/camptothecin viability: 0.2
- viability with camptothecin: 95.7

NOP53 (GeneID 29997) [SID164468998]
- log2 vehicle/camptothecin viability: -0.571
- viability with camptothecin: 85.3

NOP53 (GeneID 29997) [SID164469000]
- log2 vehicle/camptothecin viability: -0.412
- viability with camptothecin: 78.2

NOP53 (GeneID 29997) [SID164469001]
- log2 vehicle/camptothecin viability: -0.473
- viability with camptothecin: 90.1

The list goes on, starting with the last 4 of the part before.
FBXO11 (GeneID 80204) [SID164535530]
- log2 vehicle/camptothecin viability: 0.2
- viability with camptothecin: 95.7

NOP53 (GeneID 29997) [SID164468998]
- log2 vehicle/camptothecin viability: -0.571
- viability with camptothecin: 85.3

NOP53 (GeneID 29997) [SID164469000]
- log2 vehicle/camptothecin viability: -0.412
- viability with camptothecin: 78.2

NOP53 (GeneID 29997) [SID164469001]
- log2 vehicle/camptothecin viability: -0.473
- viability with camptothecin: 90.1

C2 (GeneID 717) [SID164355831]
- log2 vehicle/camptothecin viability: -0.0474
- viability with camptothecin: 95.3

C2 (GeneID 717) [SID164355832]
- log2 vehicle/camptothecin viability: -0.27
- viability with camptothecin: 35.6

C2 (GeneID 717) [SID164355833]
- log2 vehicle/camptothecin viability: -0.0374
- viability with camptothecin: 98.1

C2 (GeneID 717) [SID164355835]
- log2 vehicle/camptothecin viability: 0.00564
- viability with camptothecin: 1.77

KLK15 (GeneID 55554) [SID164485135]
- log2 vehicle/camptothecin viability: -0.239
- viability with camptothecin: 67.3

KLK15 (GeneID 55554) [SID164485138]
- log2 vehicle/camptothecin viability: 1.16
- viability with camptothecin: 26.6

KLK15 (GeneID 55554) [SID164485139]
- log2 vehicle/camptothecin viability: -0.0896
- viability with camptothecin: 94.3

F13B (GeneID 2165) [SID164364140]
- log2 vehicle/camptothecin viability: -0.248
- viability with camptothecin: 78.5

F13B (GeneID 2165) [SID164364143]
- log2 vehicle/camptothecin viability: 0.158
- viability with camptothecin: 75.7

F13B (GeneID 2165) [SID164364145]
- log2 vehicle/camptothecin viability: 0.182
- viability with camptothecin: 90.6

F13B (GeneID 2165) [SID164364146]
- log2 vehicle/camptothecin viability: -0.0375
- viability with camptothecin: 53.4

LDLRAD2 (GeneID 401944) [SID164682742]
- log2 vehicle/camptothecin viability: -0.255
- viability with camptothecin: 83.7

LDLRAD2 (GeneID 401944) [SID164682743]
- log2 vehicle/camptothecin viability: -0.609
- viability with camptothecin: 87.2

LDLRAD2 (GeneID 401944) [SID164682745]
- log2 vehicle/camptothecin viability: -0.826
- viability with camptothecin: 114

LDLRAD2 (GeneID 401944) [SID164682746]
- log2 vehicle/camptothecin viability: 0.0332
- viability with camptothecin: 24.1
